# Experimental data as given in the supplement of paper PMC3334620.
# Whole data set: some 33,000 sequences, median “E-score (-0.5 to 0.5)” near -0.016, cut for the highest 2% near 0.3. The list shows a part of the results.
# Biological target: T1, Yer184c (UniProt P39961)
# T1 sequence: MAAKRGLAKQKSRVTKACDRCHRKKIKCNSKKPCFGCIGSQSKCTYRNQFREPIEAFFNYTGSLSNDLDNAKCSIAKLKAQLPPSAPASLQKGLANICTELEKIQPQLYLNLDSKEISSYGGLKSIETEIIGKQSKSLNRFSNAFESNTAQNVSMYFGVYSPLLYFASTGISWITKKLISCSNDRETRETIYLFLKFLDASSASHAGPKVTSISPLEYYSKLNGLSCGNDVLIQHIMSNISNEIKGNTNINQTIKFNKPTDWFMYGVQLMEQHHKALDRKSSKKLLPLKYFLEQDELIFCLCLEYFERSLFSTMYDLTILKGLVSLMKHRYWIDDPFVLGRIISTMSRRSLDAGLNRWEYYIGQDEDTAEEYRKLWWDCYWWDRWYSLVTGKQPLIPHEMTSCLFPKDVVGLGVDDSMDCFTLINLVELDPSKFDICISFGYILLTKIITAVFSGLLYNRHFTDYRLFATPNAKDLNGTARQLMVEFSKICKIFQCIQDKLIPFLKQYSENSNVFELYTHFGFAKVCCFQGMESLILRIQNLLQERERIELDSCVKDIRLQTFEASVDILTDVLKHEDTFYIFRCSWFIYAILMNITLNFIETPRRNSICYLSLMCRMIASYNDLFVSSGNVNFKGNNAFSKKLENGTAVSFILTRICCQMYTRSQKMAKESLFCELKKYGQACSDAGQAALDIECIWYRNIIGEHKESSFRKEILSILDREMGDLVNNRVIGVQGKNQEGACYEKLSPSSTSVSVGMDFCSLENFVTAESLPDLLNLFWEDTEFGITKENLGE
# Assay: PBM E-score (8-mer binding enrichment) (E-score (-0.5 to 0.5)); higher = stronger / more preferred TF binding
# Settings: protein concentration: 100 nM; construct: GST-full length
# Method in brief: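 Universal all-10-mer Agilent arrays, double-stranded by primer extension on fresh or once-stripped slides, were probed with about 100-200 nM GST-tagged yeast transcription factors made by PURExpress. Fluorescent anti-GST detected bound protein, and masliner normalised the scans. E-scores from the Universal PBM Analysis Suite were given to each ungapped eight-base word pooled with its reverse complement.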
row,Sequence,PBM E-score
1,CAGTCAGG,-0.228
2,CCTCGCAG,-0.234
3,ACGCCAAT,-0.0124
4,ATTGTGAG,0.09
5,AATAGACG,0.0155
6,CAGTCCGA,0.182
7,CCGTGGAG,0.0232
8,CCTGCCCA,-0.301
9,CCCTCATC,-0.315
10,CTGTAAAG,0.113
11,CATGCGAA,0.159
12,TTACAAAA,0.172
13,ATAATCAC,0.0615
14,GGCCCAGA,-0.241
15,AAGCCGAT,0.356
16,CCGTGCTC,0.132
17,CCTCGTCC,-0.2
18,CCTCTGAA,-0.181
19,ATATGTTC,0.0761
20,GGTATGAC,-0.143
21,AGGTCATA,-0.118
22,CAGTCGAG,-0.21
23,GGACTAAC,-0.00306
24,ACATAAAT,0.105
25,AAAGAATG,0.251

row,Sequence,PBM E-score
1,AACCTCCT,-0.256
2,GACCTGGA,-0.194
3,AGTGGCCC,-0.153
4,CAATCCGA,0.184
5,GCCCCACC,-0.13
6,AGCCTAAC,-0.019
7,AGAAGATC,-0.0839
8,CCCCGGGA,0.119
9,ACTACCCA,-0.168
10,AAACCACC,-0.153
11,CCTGCGGC,-0.123
12,CCGAGCTC,0.187
13,AGCAACAT,0.0281
14,CCAGTGCA,-0.172
15,GGCAGCCA,-0.111
16,CCTTCTTA,-0.129
17,CAGATCCC,-0.21
18,ATAAGATC,-0.0275
19,CACAACCG,0.254
20,CTACTTGA,-0.244
21,ATGTGGAC,-0.0649
22,GCTCTAGA,-0.207
23,ATGGACGA,0.0399
24,ACCAAAAC,-0.00373
25,ACCGGGAG,-0.0778

row,Sequence,PBM E-score
1,ATGTCTCC,0.0381
2,TAACACTA,0.2
3,GGACCGGA,0.297
4,AGGACCGG,0.0759
5,GAATATCA,0.0157
6,CGTGAAGA,0.0142
7,CTGGACGC,-0.214
8,CATGCTGG,-0.295
9,ATCCAAGA,0.162
10,CTCTGATC,-0.192
11,CGCCAAAA,0.132
12,ACTTCGAC,0.0831
13,GACGAGCA,-0.036
14,ACGACAGA,-0.0988
15,GTGGAATA,-0.00226
16,ACTCCGCG,0.195
17,TGAGATAA,0.0396
18,TATTCCAA,0.115
19,TCGACCAA,-0.124
20,GTGGCGTA,-0.0523
21,GCGTAGAC,-0.149
22,CTGTTACC,-0.266
23,ACCGGCGC,0.226
24,ATGTTGTG,0.0995
25,AGGAACTG,-0.128

row,Sequence,PBM E-score
1,CATTCTTA,-0.0698
2,ACCGCCAA,-0.0895
3,ACAGTCAA,-0.00419
4,ACGTTACT,0.0168
5,TCAAAGCA,0.137
6,AACACAAA,0.0539
7,CATTGTCG,0.047
8,GCGAGCTA,-0.0608
9,AGAGTAAA,-0.00457
10,ATAGTAAC,0.0738
11,GGACGCAA,-0.0521
12,ATGCGTCC,-0.0549
13,CGCTACGA,-0.0203
14,CGTGCCCC,-0.266
15,CACAGGAG,-0.0459
16,CTCGAACC,-0.0575
17,CTGTGTGC,-0.184
18,TAACAGTA,-0.131
19,ATATACAT,0.174
20,CCTCCAGC,-0.254
21,GAAACTAC,0.181
22,CTTGTTCC,0.153
23,CATTGTAG,-0.106
24,GAACACTA,0.0425
25,ATTGTTTA,0.124

# 7 successive records out of the list so far:
row,Sequence,PBM E-score
15,CACAGGAG,-0.0459
16,CTCGAACC,-0.0575
17,CTGTGTGC,-0.184
18,TAACAGTA,-0.131
19,ATATACAT,0.174
20,CCTCCAGC,-0.254
21,GAAACTAC,0.181

# Going on with the list:

row,Sequence,PBM E-score
1,ACGACCTC,0.0288
2,AGGTATTG,-0.0873
3,ATAGTTCG,0.133
4,CTGTGAAA,0.249
5,CAGGCTAG,-0.28
6,ACGCACGA,0.064
7,CGTGTCAG,0.0737
8,AAATTCCT,-0.0664
9,ATCGTCTG,-0.0447
10,CCCGCGGG,0.3
11,GGACCGTA,-0.00481
12,ACGTGCCA,-0.242
13,GCACAGAA,0.0756
14,AGACGATC,-0.334
15,ACTGGGAC,-0.193
16,CCGGAGTA,0.381
17,CATACCAA,-0.0295
18,CTGCGTTC,0.103
19,GCACAGCA,0.0113
20,AACAACGT,-0.113
21,ACTATATA,0.19
22,CCCGACCC,-0.0628
23,ACCGAGTC,-0.0455
24,ACCGACAG,0.11
25,CTGATAAA,0.0927

# Single entries from above.
# PBM E-score with GTGGAATA is entered as -0.00226
# PBM E-score with ACGCCAAT is entered as -0.0124
# PBM E-score with GCGAGCTA is entered as -0.0608

# The results go on:

row,Sequence,PBM E-score
1,AGGCCCAG,-0.345
2,GATAGCCA,-0.107
3,CATGCTAC,-0.177
4,GGCGGCCA,-0.0827
5,TATACTAA,0.104
6,ATTTACGC,0.029
7,ATATTCGG,0.188
8,AGTTGAGA,-0.025
9,GCTTGCTA,-0.13
10,GGCGCCAA,-0.0615
11,CGTCAGTC,-0.057
12,AAGTTTCA,0.167
13,CGCACACA,-0.0939
14,GTGTCGAA,-0.118
15,AACAAAGG,-0.0899
16,CCGACTTA,0.304
17,CCACCACA,-0.093
18,ATTGTGTA,0.143
19,AGAGTCAG,-0.134
20,AGCAGGAG,-0.0829
21,AGTGGGTG,0.0405
22,AACCCTGG,-0.26
23,CCTTGACA,-0.129
24,CTTTTTGA,0.0865
25,ACATATCT,0.121

row,Sequence,PBM E-score
1,ACTTAGCC,-0.12
2,CGCTGTTA,-0.0994
3,AATGTGTG,-0.0345
4,CACACTTC,-0.0208
5,AGTAGACA,0.0712
6,CATTGCCG,0.24
7,CCCGTCAA,-0.0729
8,AGGTACGA,-0.137
9,AAACAGCT,0.0347
10,GAAGCAGA,0.0335
11,GAAGCCAC,-0.0556
12,GATGAATA,0.0934
13,AACCTAAA,0.205
14,AGATGATA,0.187
15,AACGACTC,-0.242
16,CAGCGCGC,0.0173
17,ACCGGCAG,0.0457
18,CTGGAAAC,0.032
19,GCTACACA,-0.117
20,TAGAGCCA,-0.247
21,CATGAGTC,-0.206
22,AATGAATC,-0.0127
